{"source": "patent US20120046363A1", "about": "“DOCOSAHEXAENOIC ACID FOR THE TREATMENT OF HEART FAILURE” (University of Maryland, Baltimore, priority 2009, published 2012)", "test": "Body mass, organ mass and mitochondrial yield after dietary supplementation (Series 1)", "assay_type": "in vivo, male Wistar rats", "conditions": "8 weeks, mean ± SEM"}
{"compound": "CC/C=C\\C/C=C\\C/C=C\\C/C=C\\C/C=C\\CCCC(=O)O", "note": "[EPA, eicosapentanoic acid]", "values": [{"measurement": "Biatrial Mass", "setting": "2.5% of caloric intake", "value": "0.09 ± 0.02", "unit": "g"}, {"measurement": "LV Mass", "setting": "2.5% of caloric intake", "value": "0.89 ± 0.07", "unit": "g"}, {"measurement": "Liver Mass", "setting": "2.5% of caloric intake", "value": "15.5 ± 1.5", "unit": "g"}, {"measurement": "RV Mass", "setting": "2.5% of caloric intake", "value": "0.29 ± 0.03", "unit": "g"}, {"measurement": "Terminal Body Mass", "setting": "diet with DHA or EPA at 2.5% of total caloric intake", "value": "486 ± 29", "unit": "g"}]}
